# Test results: publication PMC8429728, “TNK1 is a ubiquitin-binding and 14-3-3-regulated kinase that can be targeted to block tumor growth” (Nature Communications, 2021)
# Biological target: T1, Biotin-(4xPEG)-… (human)
# T1 sequence (peptide, Biotin-(4xPEG) on the N-terminus): RNKGISRALESVLSLGP
# Test: BLI; biotin-tagged peptide loaded on streptavidin biosensors; 14-3-3ζ 50–1000 nM, 4 s association, 120 s dissociation; 0.001% TBST; 30 °C; Kd = Koff/Kon, mean of 3 runs; both purified
substance,measurement,value
"14-3-3ζ (purified, from the GST-14-3-3ζ plasmid)",binding,no binding (tested: 1000 nM)

# Results are given in words; binding and its absence hold for the method and conditions named.
